# Experimental data taken from the supplement of paper PMC12067093, “Discovery and optimisation of a covalent ligand for TRIM25 and its application to targeted protein ubiquitination” (Chemical Science, 2025).
# Chains of the proteins cited; added tags and fusions are not shown. Lines headed by an entry give the natural chain unless they say otherwise; changes in a name come on top.
# UniProt Q9UHB7: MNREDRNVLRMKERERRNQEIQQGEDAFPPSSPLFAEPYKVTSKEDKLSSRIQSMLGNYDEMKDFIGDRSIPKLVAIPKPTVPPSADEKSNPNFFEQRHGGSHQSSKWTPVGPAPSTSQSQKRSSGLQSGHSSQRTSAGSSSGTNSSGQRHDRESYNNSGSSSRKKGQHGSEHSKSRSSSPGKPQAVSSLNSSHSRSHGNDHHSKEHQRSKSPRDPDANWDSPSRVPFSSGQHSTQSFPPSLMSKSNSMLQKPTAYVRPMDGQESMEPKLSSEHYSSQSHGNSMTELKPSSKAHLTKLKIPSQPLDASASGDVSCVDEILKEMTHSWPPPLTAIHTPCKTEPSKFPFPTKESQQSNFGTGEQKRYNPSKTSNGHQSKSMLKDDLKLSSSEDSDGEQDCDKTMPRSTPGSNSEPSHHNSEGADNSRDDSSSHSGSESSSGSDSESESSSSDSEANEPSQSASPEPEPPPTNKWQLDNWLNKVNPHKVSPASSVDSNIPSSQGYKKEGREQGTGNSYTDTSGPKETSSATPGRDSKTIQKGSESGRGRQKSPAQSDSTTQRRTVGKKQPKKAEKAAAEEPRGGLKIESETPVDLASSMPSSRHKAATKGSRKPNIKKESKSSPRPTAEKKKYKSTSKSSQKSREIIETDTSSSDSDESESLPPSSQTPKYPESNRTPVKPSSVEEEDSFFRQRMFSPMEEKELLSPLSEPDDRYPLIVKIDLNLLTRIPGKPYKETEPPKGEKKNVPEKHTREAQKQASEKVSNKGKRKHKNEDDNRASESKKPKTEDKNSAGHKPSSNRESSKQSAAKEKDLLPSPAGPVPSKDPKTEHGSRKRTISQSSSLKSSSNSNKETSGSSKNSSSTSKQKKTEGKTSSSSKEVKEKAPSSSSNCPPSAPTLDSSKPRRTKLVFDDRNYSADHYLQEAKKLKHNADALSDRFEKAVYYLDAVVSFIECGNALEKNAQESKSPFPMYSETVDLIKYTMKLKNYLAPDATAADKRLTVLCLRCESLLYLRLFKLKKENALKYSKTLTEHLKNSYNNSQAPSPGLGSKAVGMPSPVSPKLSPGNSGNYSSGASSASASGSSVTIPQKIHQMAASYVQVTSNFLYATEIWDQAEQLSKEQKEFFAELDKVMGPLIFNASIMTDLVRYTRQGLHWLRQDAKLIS
# UniProt P35573: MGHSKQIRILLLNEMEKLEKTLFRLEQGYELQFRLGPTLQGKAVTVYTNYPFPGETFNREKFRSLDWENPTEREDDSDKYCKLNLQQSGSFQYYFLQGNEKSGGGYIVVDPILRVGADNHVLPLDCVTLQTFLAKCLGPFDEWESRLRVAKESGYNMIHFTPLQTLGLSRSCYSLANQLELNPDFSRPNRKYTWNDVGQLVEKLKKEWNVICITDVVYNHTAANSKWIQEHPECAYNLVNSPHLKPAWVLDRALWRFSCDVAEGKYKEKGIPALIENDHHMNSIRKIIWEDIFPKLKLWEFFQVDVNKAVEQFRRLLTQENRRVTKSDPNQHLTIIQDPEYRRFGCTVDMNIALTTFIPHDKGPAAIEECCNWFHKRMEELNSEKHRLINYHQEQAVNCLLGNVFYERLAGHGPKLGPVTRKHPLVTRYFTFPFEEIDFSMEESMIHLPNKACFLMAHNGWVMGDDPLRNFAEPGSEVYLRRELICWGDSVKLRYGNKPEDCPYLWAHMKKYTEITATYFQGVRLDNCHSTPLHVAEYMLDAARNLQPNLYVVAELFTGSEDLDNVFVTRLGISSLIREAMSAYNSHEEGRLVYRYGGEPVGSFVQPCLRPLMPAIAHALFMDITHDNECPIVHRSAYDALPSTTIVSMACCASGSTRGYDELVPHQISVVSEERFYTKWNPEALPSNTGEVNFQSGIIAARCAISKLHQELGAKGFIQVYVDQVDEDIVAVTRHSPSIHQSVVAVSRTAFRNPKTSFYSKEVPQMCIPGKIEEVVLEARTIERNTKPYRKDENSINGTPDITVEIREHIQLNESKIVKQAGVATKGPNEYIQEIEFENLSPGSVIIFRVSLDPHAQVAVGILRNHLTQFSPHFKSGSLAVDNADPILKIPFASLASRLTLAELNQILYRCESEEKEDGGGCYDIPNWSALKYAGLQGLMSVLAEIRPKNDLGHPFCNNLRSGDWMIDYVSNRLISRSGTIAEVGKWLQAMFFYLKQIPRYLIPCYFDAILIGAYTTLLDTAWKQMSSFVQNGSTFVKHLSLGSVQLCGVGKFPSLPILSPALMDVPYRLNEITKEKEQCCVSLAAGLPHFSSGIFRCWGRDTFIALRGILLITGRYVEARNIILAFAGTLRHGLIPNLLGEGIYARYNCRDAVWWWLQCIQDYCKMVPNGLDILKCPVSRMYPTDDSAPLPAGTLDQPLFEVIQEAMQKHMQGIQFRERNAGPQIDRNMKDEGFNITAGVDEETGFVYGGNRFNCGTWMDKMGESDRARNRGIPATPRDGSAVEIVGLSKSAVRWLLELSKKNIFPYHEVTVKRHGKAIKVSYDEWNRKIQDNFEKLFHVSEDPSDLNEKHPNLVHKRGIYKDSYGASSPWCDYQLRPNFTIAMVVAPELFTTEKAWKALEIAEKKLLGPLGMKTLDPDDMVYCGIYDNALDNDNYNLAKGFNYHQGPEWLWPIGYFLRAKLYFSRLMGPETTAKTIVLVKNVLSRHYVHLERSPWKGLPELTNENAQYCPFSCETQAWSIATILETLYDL
# UniProt Q9BRR6: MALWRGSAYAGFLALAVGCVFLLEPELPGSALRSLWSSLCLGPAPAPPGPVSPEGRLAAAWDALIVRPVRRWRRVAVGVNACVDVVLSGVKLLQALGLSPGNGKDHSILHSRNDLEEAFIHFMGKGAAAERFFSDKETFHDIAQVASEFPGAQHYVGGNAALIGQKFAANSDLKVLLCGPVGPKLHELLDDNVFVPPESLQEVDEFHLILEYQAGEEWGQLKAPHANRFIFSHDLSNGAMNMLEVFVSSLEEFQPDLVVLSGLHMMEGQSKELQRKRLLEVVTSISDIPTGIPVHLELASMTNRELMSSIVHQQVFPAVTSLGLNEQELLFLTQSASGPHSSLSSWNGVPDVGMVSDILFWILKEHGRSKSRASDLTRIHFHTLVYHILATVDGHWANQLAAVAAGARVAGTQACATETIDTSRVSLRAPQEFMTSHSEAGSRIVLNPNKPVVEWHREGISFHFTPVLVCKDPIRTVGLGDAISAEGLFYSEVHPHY
# UniProt Q9ULC5: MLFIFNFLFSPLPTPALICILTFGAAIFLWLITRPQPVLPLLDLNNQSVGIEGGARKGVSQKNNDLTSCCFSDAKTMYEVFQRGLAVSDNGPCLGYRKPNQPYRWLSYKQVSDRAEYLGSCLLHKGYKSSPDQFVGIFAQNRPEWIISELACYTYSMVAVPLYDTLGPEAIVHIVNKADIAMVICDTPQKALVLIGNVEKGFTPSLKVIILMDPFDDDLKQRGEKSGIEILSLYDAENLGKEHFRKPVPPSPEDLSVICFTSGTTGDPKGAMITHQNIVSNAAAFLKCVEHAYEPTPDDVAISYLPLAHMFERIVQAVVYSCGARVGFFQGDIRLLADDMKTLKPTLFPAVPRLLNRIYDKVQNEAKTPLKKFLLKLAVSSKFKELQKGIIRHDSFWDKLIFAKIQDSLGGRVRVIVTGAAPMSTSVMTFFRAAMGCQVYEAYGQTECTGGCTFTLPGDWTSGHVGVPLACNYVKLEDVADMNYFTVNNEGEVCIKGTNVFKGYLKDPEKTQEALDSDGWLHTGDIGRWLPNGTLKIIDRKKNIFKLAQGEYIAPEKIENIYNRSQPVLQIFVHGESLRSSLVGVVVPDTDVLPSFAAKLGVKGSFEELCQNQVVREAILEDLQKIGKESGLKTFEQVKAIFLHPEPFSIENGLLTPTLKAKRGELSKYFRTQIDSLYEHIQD
# UniProt P30566: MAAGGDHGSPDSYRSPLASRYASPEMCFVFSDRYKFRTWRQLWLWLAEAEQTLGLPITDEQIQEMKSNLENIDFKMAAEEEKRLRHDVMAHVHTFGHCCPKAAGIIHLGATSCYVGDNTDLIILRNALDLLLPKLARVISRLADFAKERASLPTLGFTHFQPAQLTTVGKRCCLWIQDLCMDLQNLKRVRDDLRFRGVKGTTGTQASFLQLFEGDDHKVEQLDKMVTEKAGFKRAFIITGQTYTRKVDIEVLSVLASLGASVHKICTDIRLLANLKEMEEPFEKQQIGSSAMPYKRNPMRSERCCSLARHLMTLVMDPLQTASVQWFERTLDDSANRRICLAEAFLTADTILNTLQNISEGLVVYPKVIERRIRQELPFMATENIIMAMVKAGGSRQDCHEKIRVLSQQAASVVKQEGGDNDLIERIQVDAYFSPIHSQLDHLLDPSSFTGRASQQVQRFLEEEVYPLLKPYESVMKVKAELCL
# UniProt Q9Y305: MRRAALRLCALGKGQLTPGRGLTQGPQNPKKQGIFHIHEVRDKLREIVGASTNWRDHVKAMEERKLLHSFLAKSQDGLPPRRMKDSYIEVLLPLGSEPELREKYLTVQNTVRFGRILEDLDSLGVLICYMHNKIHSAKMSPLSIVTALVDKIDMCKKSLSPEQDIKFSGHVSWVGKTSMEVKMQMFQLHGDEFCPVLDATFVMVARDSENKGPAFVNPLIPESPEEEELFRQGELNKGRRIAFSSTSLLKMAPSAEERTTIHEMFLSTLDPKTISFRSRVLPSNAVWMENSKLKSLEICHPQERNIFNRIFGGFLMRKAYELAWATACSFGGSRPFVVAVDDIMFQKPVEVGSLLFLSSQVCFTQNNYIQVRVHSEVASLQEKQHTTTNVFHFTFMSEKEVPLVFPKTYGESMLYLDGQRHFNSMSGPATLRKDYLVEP
# UniProt P51826: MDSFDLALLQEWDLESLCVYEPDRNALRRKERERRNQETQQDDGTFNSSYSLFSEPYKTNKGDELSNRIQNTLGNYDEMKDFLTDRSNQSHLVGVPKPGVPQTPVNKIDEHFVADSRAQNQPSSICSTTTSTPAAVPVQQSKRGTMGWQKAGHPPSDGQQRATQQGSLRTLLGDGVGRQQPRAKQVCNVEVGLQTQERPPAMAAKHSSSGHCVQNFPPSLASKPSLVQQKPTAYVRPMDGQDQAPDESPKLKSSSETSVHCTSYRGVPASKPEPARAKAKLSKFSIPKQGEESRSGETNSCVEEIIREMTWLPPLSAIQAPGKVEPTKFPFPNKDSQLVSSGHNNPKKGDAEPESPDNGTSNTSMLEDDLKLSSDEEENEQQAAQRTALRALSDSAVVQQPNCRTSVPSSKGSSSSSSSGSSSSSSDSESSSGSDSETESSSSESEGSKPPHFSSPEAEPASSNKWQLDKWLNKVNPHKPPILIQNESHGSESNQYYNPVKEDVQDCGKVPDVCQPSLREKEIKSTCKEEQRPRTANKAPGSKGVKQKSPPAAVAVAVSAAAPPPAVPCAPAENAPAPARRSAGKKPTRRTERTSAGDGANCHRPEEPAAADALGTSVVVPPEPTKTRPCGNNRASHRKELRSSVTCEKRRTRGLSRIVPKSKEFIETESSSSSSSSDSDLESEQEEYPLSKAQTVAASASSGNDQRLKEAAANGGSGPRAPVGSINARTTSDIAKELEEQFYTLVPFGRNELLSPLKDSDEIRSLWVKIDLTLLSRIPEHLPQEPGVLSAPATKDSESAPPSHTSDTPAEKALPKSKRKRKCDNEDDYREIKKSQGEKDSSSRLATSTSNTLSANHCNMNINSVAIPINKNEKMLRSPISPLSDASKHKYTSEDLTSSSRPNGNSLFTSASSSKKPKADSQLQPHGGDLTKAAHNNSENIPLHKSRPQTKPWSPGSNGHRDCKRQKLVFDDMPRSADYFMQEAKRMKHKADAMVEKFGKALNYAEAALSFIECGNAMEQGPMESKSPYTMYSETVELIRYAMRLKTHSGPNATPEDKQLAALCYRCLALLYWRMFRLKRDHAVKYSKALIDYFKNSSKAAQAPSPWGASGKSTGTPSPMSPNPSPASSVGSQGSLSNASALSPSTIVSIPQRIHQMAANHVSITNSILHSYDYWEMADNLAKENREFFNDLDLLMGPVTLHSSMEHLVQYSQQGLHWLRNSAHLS
# UniProt P24666: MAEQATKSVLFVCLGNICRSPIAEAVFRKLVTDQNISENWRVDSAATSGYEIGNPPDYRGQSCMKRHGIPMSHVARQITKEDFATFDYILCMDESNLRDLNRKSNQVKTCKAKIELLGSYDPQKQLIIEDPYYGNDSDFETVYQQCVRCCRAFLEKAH
# UniProt P55263: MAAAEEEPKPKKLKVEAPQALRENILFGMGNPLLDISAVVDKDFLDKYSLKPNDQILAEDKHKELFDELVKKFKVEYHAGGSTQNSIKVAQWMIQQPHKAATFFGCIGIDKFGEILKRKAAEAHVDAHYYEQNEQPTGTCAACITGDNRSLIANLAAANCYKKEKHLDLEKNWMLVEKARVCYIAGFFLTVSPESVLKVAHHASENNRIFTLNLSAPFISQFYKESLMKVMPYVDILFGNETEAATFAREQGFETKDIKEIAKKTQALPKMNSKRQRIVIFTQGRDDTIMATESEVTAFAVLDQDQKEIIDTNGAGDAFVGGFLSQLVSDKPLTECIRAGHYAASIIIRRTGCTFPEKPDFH
# The other results are listed elsewhere or left out.
# Compound: Cc1cc(ccc1-c1ccccc1)C(=O)N1CCCN(CC1)C(=O)CCl [compound 10]
# Assay: probe-labelled cysteine peptide fold change vs DMSO (competition) (log2 fold change); higher = less target engagement (more negative = stronger competition)
# Settings: THP-1, incubation time: 4 h
# 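Also: competitive profiling in live THP-1 cells: cysteine peptides tagged with an iodoacetamide desthiobiotin (IA-DTB) probe, intensity after compound treatment relative to DMSO-treated cells.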
Target,probe-labelled cysteine peptide fold change (10 µM),probe-labelled cysteine peptide fold change (50 µM)
ADAM10_O14672_435_FSLCSIR (UniProt O14672),-0.0469,-0.123
AFF4_Q9UHB7_338_EMTHSWPPPLTAIHTPCK (UniProt Q9UHB7),-0.0876,-0.0943
ACY1_Q03154_116_CVSIQYLEAVR (UniProt Q03154),0.144,0.329
AGL_P35573_259_FSCDVAEGK (UniProt P35573),0.176,0.0148
ADRM1_Q16186_121_TDQDEEHCRK (UniProt Q16186),-0.285,0.117
ADGRL3_Q9HAR2_36_RELSCESYPIELR (UniProt Q9HAR2),-0.248,-0.197
ADA2_Q9NZK5_408_DIPIEVCPISNQVLK (UniProt Q9NZK5),-0.147,-0.195
ACTB_P60709_17_DDDIAALVVDNGSGMCK (UniProt P60709),-0.291,-0.0887
ACSL1_P33121_241_CGVEVTSMK (UniProt P33121),-0.0907,-0.278
ADGRA2_Q96PE1_194+196_VVDLGTEFLTCDCHLR (UniProt Q96PE1),-0.0444,-0.153
ADRM1_Q16186_88_VPQCPSGR (UniProt Q16186),-0.599,-0.0584
ADAM15_Q13444_409_ALLDGMGSCLFER (UniProt Q13444),-0.0293,0.0134
ADAR_P55265_519_NPISGLLEYAQFASQTCEFNMIEQSGPPHEPR (UniProt P55265),0.0898,0.178
ADNP_Q9H2P0_452_ICTICNELFPENVYSVHFEK (UniProt Q9H2P0),-0.157,-0.0457
ADAT1_Q9BUB4_263_CVPGEAGDSGKPGAAFHQVGLLR (UniProt Q9BUB4),-0.00274,-0.15
ADCY9_O60503_1204_MDTTGVECR (UniProt O60503),0.0815,-0.0282
ACTR10_Q9NZ32_27_CGFAGETGPR (UniProt Q9NZ32),0.211,0.138
ADO_Q96SZ5_183_AEYTEASGPCILTPHR (UniProt Q96SZ5),-0.134,0.0874
ADAM9_Q13443_539_DCFIEVNSK (UniProt Q13443),-0.0729,-0.137
ADAR_P55265_851_CFNTLTNSFQPSLLGR (UniProt P55265),-0.0671,0.166
ADA_P00813_262_QENMHFEICPWSSYLTGAWKPDTEHAVIR (UniProt P00813),-0.043,-0.0732
ADPGK_Q9BRR6_415_VAGTQACATETIDTSR (UniProt Q9BRR6),-0.224,0.176

Target,probe-labelled cysteine peptide fold change (10 µM),probe-labelled cysteine peptide fold change (50 µM)
AGL_P35573_234_WIQEHPECAYNLVNSPHLK (UniProt P35573),-0.0163,0.149
ACTN4_O43707_793_ACLISLGYDVENDRQGEAEFNR (UniProt O43707),0.11,0.0633
ADRM1_Q16186_80_TSGNVEDDLIIFPDDCEFKR (UniProt Q16186),-0.174,-0.215
ADGRL3_Q9HAR2_36_ELSCESYPIELR (UniProt Q9HAR2),-0.163,0.0665
ACSL5_Q9ULC5_322_IVQAVVYSCGAR (UniProt Q9ULC5),-0.154,-0.0691
ADPRHL2_Q9NX46_132_CRDVFEPAR (UniProt Q9NX46),-0.136,0.0456
AGGF1_Q8N302_307_AFSVEHTSCNEEENFANMK (UniProt Q8N302),0.226,0.103
ACTR3_P61158_8_LPACVVDCGTGYTK (UniProt P61158),-0.09,-0.163
ACP2_P11117_159_FPLGPCPR (UniProt P11117),-0.0318,-0.0842
ACTN1_P12814_180_DGLGFCALIHR (UniProt P12814),0.0677,0.0339
AFF4_Q9UHB7_315_IPSQPLDASASGDVSCVDEILK (UniProt Q9UHB7),-0.259,-0.257
AGK_Q53H12_72_KATVFLNPAACK (UniProt Q53H12),-0.0296,-0.158
ADSL_P30566_27_YASPEMCFVFSDR (UniProt P30566),0.0352,-0.1
ACP2_P11117_349_CPLQDFLR (UniProt P11117),-0.0584,-0.0485
ADSL_P30566_99_HDVMAHVHTFGHCCPK (UniProt P30566),-0.0749,-0.406
ACSL5_Q9ULC5_288_CVEHAYEPTPDDVAISYLPLAHMFER (UniProt Q9ULC5),0.179,0.0741
ADAM10_O14672_530_DDSDCAR (UniProt O14672),0.552,1.2
AFF1_P51825_1181_LSTNVCTLALNSSLVDLVHYTR (UniProt P51825),-0.147,-0.00592
ACTR8_Q9H981_179_WTNTSHHPEYLVGEEALYVNPLDCYNIHWPIRR (UniProt Q9H981),0.218,-0.0251
ADPGK_Q9BRR6_470_EGISFHFTPVLVCK (UniProt Q9BRR6),0.181,0.234
ADGRE2_Q9UHX3_328_LQQHCVASHLLDGLEDVLR (UniProt Q9UHX3),-0.171,-0.096
ADCY9_O60503_1333_AIEKDDCDETGIEEANELTK (UniProt O60503),-0.112,-0.417

Target,probe-labelled cysteine peptide fold change (10 µM),probe-labelled cysteine peptide fold change (50 µM)
ADAR_P55265_490_CSPYKK (UniProt P55265),-0.379,-0.683
ADH5_P11766_170+174_VCLLGCGISTGYGAAVNTAK (UniProt P11766),0.0173,-0.195
AFTPH_Q6ULP2_583_DSCSWAAFGDQQATESHHR (UniProt Q6ULP2),-0.0209,-0.394
ADSL_P30566_113_AAGIIHLGATSCYVGDNTDLIILR (UniProt P30566),-0.268,0.352
ADNP2_Q6IQ32_74_TKPYCCGLCK (UniProt Q6IQ32),0.0257,-0.104
ADSS_P30520_18_AFAETYPAASSLPNGDCGRPR (UniProt P30520),-0.346,-0.00731
ACTR3_P61158_408_KDYEEIGPSICR (UniProt P61158),-0.045,-0.293
ACOT9_Q9Y305_194_MQMFQLHGDEFCPVLDATFVMVAR (UniProt Q9Y305),-0.228,-0.161
AFF1_P51825_892_EADTCGQDPPK (UniProt P51825),-0.00759,-0.221
ADNP_Q9H2P0_76+79_TKPFCCSACPFSSK (UniProt Q9H2P0),-0.203,-0.81
ADH5_P11766_240_EFGATECINPQDFSK (UniProt P11766),-0.307,0.241
ACSF3_Q4G176_139_KHPAAQLEYVICDSQSSVVLASQEYLELLSPVVR (UniProt Q4G176),0.198,0.319
ADNP_Q9H2P0_223_EESSIHCK (UniProt Q9H2P0),0.144,0.0562
ADAM10_O14672_607_DDKELCHVCCMKKMDPSTCASTGSVQWSR (UniProt O14672),-0.0238,-0.0642
ACTR2_P61160_20_CGYAGSNFPEHIFPALVGRPIIR (UniProt P61160),-0.0836,-0.0366
ACTN4_O43707_879_RELPPDQAEYCIAR (UniProt O43707),0.0469,0.141
ACTR10_Q9NZ32_215_TCFVSDLKR (UniProt Q9NZ32),0.00158,-0.263
AFF3_P51826_301_SGETNSCVEEIIR (UniProt P51826),-0.248,-0.0755
ACOX1_Q15067_199_CYGLHAFIVPIR (UniProt Q15067),-0.306,-0.174
AGL_P35573_126_VGADNHVLPLDCVTLQTFLAK (UniProt P35573),0.128,0.0379
ACTR2_P61160_20_CGYAGSNFPEHIFPALVGR (UniProt P61160),-0.00703,0.279
ADAM10_O14672_173_YGPQGGCADHSVFER (UniProt O14672),-0.129,-0.0295

Target,probe-labelled cysteine peptide fold change (10 µM),probe-labelled cysteine peptide fold change (50 µM)
ADNP_Q9H2P0_624+627_TLCPLCFSILK (UniProt Q9H2P0),0.0561,-0.449
AFF3_P51826_630_TRPCGNNR (UniProt P51826),0.00478,-0.0261
ADNP_Q9H2P0_31_ILSDIGLEYCK (UniProt Q9H2P0),-0.0612,0.0383
AGL_P35573_486_ELICWGDSVK (UniProt P35573),0.0938,0.033
ACP1_P24666_146_QLIIEDPYYGNDSDFETVYQQCVR (UniProt P24666),0.133,0.299
AGFG1_P52594_89_HGNEVCK (UniProt P52594),0.118,0.205
ACTR3_P61158_394_YAVWFGGSMLASTPEFYQVCHTK (UniProt P61158),-0.0129,0.256
ACTG1_P63261_17_MEEEIAALVIDNGSGMCK (UniProt P63261),-0.614,-0.292
ACTR10_Q9NZ32_388_IPDWCSLNNPPLEMMFDVGK (UniProt Q9NZ32),0.257,-0.546
ADAR_P55265_909_GETVNDCHAEIISR (UniProt P55265),0.0579,0.255
ADK_P55263_336_PLTECIR (UniProt P55263),0.157,0.369
AGA_P20933_64_ALASGGSALDAVESGCAMCER (UniProt P20933),-0.106,-0.108
ADAM10_O14672_582_YGLEECTCASSDGKDDK (UniProt O14672),0.0474,-0.0537
ACTL6A_O96019_152_LTELMFEHYNIPAFFLCK (UniProt O96019),0.0933,0.112
ADAR_P55265_304_ICDYLFNVSDSSALNLAK (UniProt P55265),0.183,0.123
ACTN4_O43707_499_ICDQWDALGSLTHSR (UniProt O43707),0.0925,0.0683
ACTR2_P61160_11_VVVCDNGTGFVK (UniProt P61160),-0.054,0.175
ADAR_P55265_499_KLTECQLK (UniProt P55265),-0.266,-0.277
ACOT9_Q9Y305_299_SLEICHPQER (UniProt Q9Y305),0.0839,0.181

# Record cards (already shown):
# ADAR_P55265_499_KLTECQLK (UniProt P55265) in the list: probe-labelled cysteine peptide fold change (10 µM) = -0.266; probe-labelled cysteine peptide fold change (50 µM) = -0.277
# ADK_P55263_336_PLTECIR (UniProt P55263) in the list: probe-labelled cysteine peptide fold change (10 µM) = 0.157; probe-labelled cysteine peptide fold change (50 µM) = 0.369
# ADAR_P55265_304_ICDYLFNVSDSSALNLAK (UniProt P55265) in the list: probe-labelled cysteine peptide fold change (10 µM) = 0.183; probe-labelled cysteine peptide fold change (50 µM) = 0.123
# ADNP_Q9H2P0_624+627_TLCPLCFSILK (UniProt Q9H2P0) in the list: probe-labelled cysteine peptide fold change (10 µM) = 0.0561; probe-labelled cysteine peptide fold change (50 µM) = -0.449
